In data set [1] the test system is PDE4. The note with it: cited from earlier work.
Data set [2] deals with high-affinity rolipram binding sites (HARBSs) of guinea pig brain cell membranes. Briefly: Displacement of [3H]-rolipram (PDE4H determination). Particulars: PDE4H = EC50 of [3H]-rolipram displacement; PDE4L = IC50 on PDE4. As for the experimental part:
When the above-described guinea pigs were sacrificed, the whole brains were removed and homogenized with a glass/Teflon homogenizer (Glas-Col, Terre Haute, IN, USA) in 10 volumes of cold medium (pH 6.5) containing 20 mM Bis-Tris, 2 mM benzamidine, 2 mM EDTA, 50 mM sodium chloride, 0.1 mM PMSF and 1 mM dithiothreitol. At 4°C, the homogenate was centrifuged at 170 g for 5 min to remove connective tissues and blood vessels. The suspended homogenate was then re-centrifuged at 40 000 g for 30 min to separate the cytosolic and particulate portions. The particulate portion was re-suspended in a suspension at a concentration of 400 mg/mL (wet weight/volume), after washing three times with homogenizing buffer. The particulate portion mainly consisted of cell membranes. The binding ability of S-petasin (3–300 μM) or Ro 20-1724 (1–10,000 nM), a reference drug, to high-affinity rolipram binding sites (HARBSs) of the membranes was determined by replacing 2 nM [^3H]-rolipram in a reaction buffer at 30°C for 1 h, according to the method described by previous investigators and modified by us. Briefly, the reaction buffer consisted of 50 mM Tris-HCl and 5 mM MgCl2 (pH 7.5). The total volume of the reaction mixture was 25 μL, consisting of 10 μL of particulate suspension, 10 μL of [^3H]-rolipram and 5 μL of S-petasin or Ro 20-1724. […]
(Loss of bound radioactivity is the signal in a displacement assay; it reports binding, not function.)

We go through five compounds from paper PMC3094704, “S-Petasin, the Main Sesquiterpene of Petasites formosanus, Inhibits Phosphodiesterase Activity and Suppresses Ovalbumin-Induced Airway Hyperresponsiveness” (Evidence-based Complementary and Alternative Medicine : eCAM, 2011).

Read-outs that look alike come from different tables or passages of the source.

On to `O=C(Nc1c(Cl)cncc1Cl)c1ccc(OC(F)F)c(OCC2CC2)c1` [roflumilast], for which the PDE4H/PDE4L ratio in data set [1] is listed as 3.

On to `O=C(Nc1c(Cl)cncc1Cl)C(=O)c1cn(Cc2ccc(F)cc2)c2ccc(O)cc12` [AWD 12-281, N-(3,5-dichloro-pyrid-4-yl)-[1-(4-fluorobenzyl)-5-hydroxy-indole-3-yl]-glyoxylic acid amide], for which the PDE4H/PDE4L ratio result in data set [1] (calculated) is recorded as “approximately 11”.

With `C=C(C)[C@@H]1C[C@@]2(C)C(=CC1=O)CC[C@@H](OC(=O)/C=C\SC)[C@@H]2C` [S-Petasin], the PDE4H/PDE4L value in data set [2] was > 17.

In the case of `COc1ccc([C@]2(C#N)CC[C@@H](C(=O)O)CC2)cc1OC1CCCC1` [cilomilast], in data set [1], the PDE4H/PDE4L ratio is 1.

Regarding `CCCCOc1cc(CC2CNC(=O)N2)ccc1OC` (centres unmarked) [Ro 20-1724, 4-(3-butoxy-4-methoxybenzyl)-2-imidazolidinone, reference compound], in data set [2], the PDE4H/PDE4L value is recorded as 0.014.
